In the supplement of paper PMC4683952:
Structures can show the parent of a compound that is named as a salt. The list shows a part of the results. Cut-off read from the data, not from the text of the source: active = 2.5 or more and inactive = the rest. Single values are uncertain here, since repeats match poorly.

Each molecule was assayed on Lgr5 (MarsCy1-Lgr5-EGFP, U2OS) (assay: cell-surface Lgr5 expression (SCi1 fluorescence, background-subtracted) relative to WT control (fold of WT control); higher = more Lgr5 at the plasma membrane). Conditions: U2OS MarsCy1-Lgr5-EGFP stable; treatment time: overnight; library: Prestwick; 20 µM.

Row | SMILES | cell-surface Lgr5 expression
1 | NCC(CC(=O)O)c1ccc(Cl)cc1 (racemic) [Baclofen (R,S)] | inactive: 0.837
2 | COc1cc(C(=O)OC2CC3CCC(C2)N3C)ccc1O (centres undefined) [Fillalbin] | inactive: 2.36
3 | N[C@@H]1C[C@H]1c1ccccc1 [Tranylcypromine hydrochloride] | inactive: 1.77
4 | CN1[C@@H]2C[C@@H](OC(=O)[C@H](CO)c3ccccc3)C[C@H]1[C@@H]1O[C@@H]12 [Scopolamine hydrochloride] | inactive: 2.26
5 | C[C@H]1CC[C@]2(NC1)O[C@H]1C[C@H]3[C@@H]4CC[C@H]5C[C@@H](O)CC[C@]5(C)[C@H]4CC[C@]3(C)[C@H]1[C@@H]2C [Tomatidine] | active: 2.69
6 | C(#CCN1CCCC1)CN1CCCC1 [Tremorine dihydrochloride] | inactive: 1.48
7 | C[C@]12CCC(=O)C=C1C=C[C@@H]1[C@@H]2CC[C@@]2(C)[C@H]1CC[C@@]2(O)CCC(=O)O [Canrenoic acid potassium salt] | inactive: 1.61
8 | C=CCN1CC[C@]23c4c5ccc(O)c4O[C@H]2C(=O)CC[C@@]3(O)[C@H]1C5 [Naloxone hydrochloride] | inactive: 1.1
9 | COP(=O)(OC)C(O)C(Cl)(Cl)Cl (centres undefined) [Trichlorfon] | inactive: 1.1
10 | C[C@]12C[C@H]3S[C@H]3C[C@@H]1CC[C@@H]1[C@@H]2CC[C@]2(C)[C@@H](O)CC[C@@H]12 [Epitiostanol] | inactive: 1.33
11 | CC(=O)O[C@H]1C[C@@H]2CC[C@@H]3[C@H](CC[C@@]4(C)[C@H]3C[C@H]([N+]3(C)CCCCC3)[C@@H]4OC(C)=O)[C@@]2(C)C[C@@H]1[N+]1(C)CCCCC1 [Pancuronium bromide] | inactive: 1.92
12 | COc1c2c(cc3c1OCO3)CCN(C)C2 [Hydrocotarnine hydrobromide] | inactive: 1.81
13 | O=c1ccc2cc(O[C@@H]3O[C@H](CO)[C@@H](O)[C@H](O)[C@H]3O)c(O)cc2o1 [Esculin Hydrate] | inactive: 2.37
14 | O=c1c2ccccc2[se]n1-c1ccccc1 [Ebselen] | inactive: 1.52
15 | COc1ccc(CN2CCNCC2)c(OC)c1OC [Trimetazidine dihydrochloride] | inactive: 1.84
16 | CN1[C@@H]2CC[C@H]1C[C@@H](OC(=O)[C@H](CO)c1ccccc1)C2 [Hyoscyamine (L)] | inactive: 1.25
17 | C[C@H](N)[C@H](O)c1ccc(O)c(O)c1 [Levonordefrin] | active: 3.94
18 | CC(C)N(CCC(C(N)=O)(c1ccccc1)c1ccccn1)C(C)C (centres undefined) [Disopyramide] | inactive: 1.32
19 | CCN1C[C@]2(C)CC[C@H](OC)[C@@]34C1[C@]1(OCO[C@@]15C[C@H](OC)[C@H]1C[C@]3(O)[C@@H]5[C@H]1OC)[C@@H](OC(C)=O)[C@H]24 [Deltaline] | inactive: 1.92
20 | CC[C@H]1CN2CCc3cc(OC)c(OC)cc3[C@@H]2C[C@@H]1C[C@H]1NCCc2cc(O)c(OC)cc21 [Cephaeline dihydrochloride heptahydrate] | inactive: -0.159

Row | SMILES | cell-surface Lgr5 expression
21 | CC1=CC(=O)C2=C(C)C[C@H](O)[C@@H]3[C@H](OC(=O)[C@H]3C)[C@H]12 [Austricine] | inactive: 1.21
22 | C[C@]12CC[C@@H](O)C[C@@H]1CC[C@@H]1[C@@H]2CC[C@]2(C)C(=O)CC[C@@H]12 [Androsterone] | inactive: 1.1
23 | CNCC(O)c1ccc(O)cc1 (racemic) [(+,-)-Synephrine] | inactive: 1.23
24 | COc1cc2c(cc1O)[C@@H]1Cc3ccc(OC)c(O)c3CN1CC2 [Scoulerine] | inactive: 1.68
25 | C1CCc2nnnn2CC1 [Pentylenetetrazole] | inactive: 1.42
26 | CC(Cc1ccc(O)cc1)NCC(O)c1cc(O)cc(O)c1 (centres undefined) [Fenoterol hydrobromide] | inactive: 2.1
27 | C=C1[C@@H]2CC[C@H]3[C@]4(C)C[C@H](O[C@@H]5O[C@H](CO)[C@@H](OS(=O)(=O)O)[C@H](OS(=O)(=O)O)[C@H]5OC(=O)CC(C)C)C[C@@H](C(=O)O)[C@H]4CC[C@]3(C2)[C@@H]1O [Atractyloside potassium salt] | inactive: 1.5
28 | C=C[C@H]1CN2CC[C@H]1C[C@@H]2[C@@H](O)c1ccnc2ccccc12 [Cinchonine] | inactive: 1.17
29 | COc1cc2c3cc1Oc1cc(ccc1O)C[C@@H]1c4c(cc(OC)c(O)c4Oc4cccc(c4)C[C@@H]3N(C)CC2)CC[N+]1(C)C [Tubocurarine chloride pentahydrate (+)] | inactive: 1.94
30 | C=C[C@H]1CN2CC[C@H]1C[C@H]2[C@H](O)c1ccnc2ccccc12 [(-)-Cinchonidine] | inactive: 2.48
31 | CC1=NCCc2c1[nH]c1cc(O)ccc21 [Harmalol hydrochloride dihydrate] | active: 2.89
32 | COc1ccc2c(c1)[C@]13CCCC[C@@H]1[C@H](C2)N(C)CC3 [Dextromethorphan hydrobromide monohydrate] | inactive: 1.71
33 | CCN(CC)C(=O)N[C@H]1C=C2c3cccc4[nH]cc(c34)C[C@H]2N(C)C1 [Lisuride (S)(-)] | inactive: 1.39
34 | C[C@]12CC[C@H]3[C@@H](CC[C@]4(O)C[C@@H](O)CC[C@]34C=O)[C@@]1(O)CC[C@@H]2C1=CC(=O)OC1 [Strophanthidin] | inactive: 0.703
35 | S=C(NC1CCCCC1)N1CCC(c2cnc[nH]2)CC1 [Thioperamide maleate] | inactive: 2.37
36 | CN1[C@@H]2CCC[C@H]1CC(=O)C2 [Pseudopelletierine hydrochloride] | inactive: 1.79
37 | CCN(CC)C(=O)N[C@@H]1CC2c3cccc4[nH]cc(c34)CC2N(C)C1 (stereo partly drawn) [S(-)-terguride hydrogen maleate] | inactive: 1.81
38 | NC(N)=NOCC[C@H](N)C(=O)O [Canavanine sulfate monohydrate (L,+)] | inactive: 1.21
39 | C#C[C@]1(O)CC[C@H]2[C@@H]3CCC4=CC(=O)CC[C@]4(C)[C@H]3CC[C@@]21C [Ethisterone] | active: 2.87

Exported as a markdown table: two of the compounds above.

| Row | SMILES | cell-surface Lgr5 expression |
| --- | --- | --- |
| 21 | CC1=CC(=O)C2=C(C)C[C@H](O)[C@@H]3[C@H](OC(=O)[C@H]3C)[C@H]12 [Austricine] | inactive: 1.21 |
| 28 | C=C[C@H]1CN2CC[C@H]1C[C@@H]2[C@@H](O)c1ccnc2ccccc12 [Cinchonine] | inactive: 1.17 |
